{
  "sequences": {"note": "Sequences of proteins named here, by UniProt entry; tags and fusion partners are left off.", "UniProt P09022": "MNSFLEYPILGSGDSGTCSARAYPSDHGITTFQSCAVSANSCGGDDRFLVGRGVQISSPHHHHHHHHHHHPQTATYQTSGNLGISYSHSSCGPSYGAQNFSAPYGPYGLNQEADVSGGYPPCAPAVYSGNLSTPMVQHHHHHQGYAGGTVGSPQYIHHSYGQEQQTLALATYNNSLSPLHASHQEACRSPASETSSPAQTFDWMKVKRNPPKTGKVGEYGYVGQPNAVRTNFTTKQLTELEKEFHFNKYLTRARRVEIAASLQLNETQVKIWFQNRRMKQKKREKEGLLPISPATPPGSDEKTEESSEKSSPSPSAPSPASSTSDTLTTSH"},
  "source": "paper PMC3514159",
  "key": {"[1]": {"molecular_target": "T1, aarF domain containing kinase 4 (human) (UniProt Q96D53)", "T1 sequence": "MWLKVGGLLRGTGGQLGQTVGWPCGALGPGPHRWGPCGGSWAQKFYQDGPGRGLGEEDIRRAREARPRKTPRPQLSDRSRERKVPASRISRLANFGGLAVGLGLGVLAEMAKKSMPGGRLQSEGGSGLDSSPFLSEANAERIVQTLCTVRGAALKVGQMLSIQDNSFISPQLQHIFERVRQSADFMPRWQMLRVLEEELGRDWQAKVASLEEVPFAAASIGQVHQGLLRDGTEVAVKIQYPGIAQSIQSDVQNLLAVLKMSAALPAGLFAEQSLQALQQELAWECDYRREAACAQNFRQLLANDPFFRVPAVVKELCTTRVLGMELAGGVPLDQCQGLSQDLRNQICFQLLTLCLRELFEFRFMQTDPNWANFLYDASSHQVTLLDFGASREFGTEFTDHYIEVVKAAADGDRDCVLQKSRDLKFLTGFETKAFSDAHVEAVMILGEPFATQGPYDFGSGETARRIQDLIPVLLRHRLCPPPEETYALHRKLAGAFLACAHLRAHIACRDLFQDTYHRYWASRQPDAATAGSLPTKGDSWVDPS", "assay": "two-hybrid; AD-Hoxa1 (Gal4 activation domain) in MATa Y8800 mated with the DB-hORF library in MATα Y8930; 30°C; selection on Sc-L-T-H + 1 mM 3AT, retest on Sc-L-T-H, Sc-L-T-A and Sc-L-T-H-A+3AT"}, "[2]": {"molecular_target": "T2, 1-acylglycerol-3-phosphate O-acyltransferase 1 (human) (UniProt Q99943)", "T2 sequence": "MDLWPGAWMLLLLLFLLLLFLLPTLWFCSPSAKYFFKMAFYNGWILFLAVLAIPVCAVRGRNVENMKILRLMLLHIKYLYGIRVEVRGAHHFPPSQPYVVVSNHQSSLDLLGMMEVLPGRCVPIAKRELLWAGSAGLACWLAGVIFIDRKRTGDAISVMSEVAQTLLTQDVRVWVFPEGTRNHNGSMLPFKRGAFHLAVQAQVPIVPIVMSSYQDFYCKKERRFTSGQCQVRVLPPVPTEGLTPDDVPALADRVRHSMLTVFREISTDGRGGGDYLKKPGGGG", "assay": "two-hybrid; AD-Hoxa1 (Gal4 activation domain) in MATa Y8800 mated with the DB-hORF library in MATα Y8930; 30°C; selection on Sc-L-T-H + 1 mM 3AT, retest on Sc-L-T-H, Sc-L-T-A and Sc-L-T-H-A+3AT"}},
  "note": "These are yes or no findings as the source states them, for the method shown. Some results given as binding are weak or reduced against the parent protein; the word gives no strength.",
  "data": [
    {"substance": "Hoxa1 (from UniProt P09022 1-331)", "values": [
      {"measurement": "binding", "setting": "[1]", "value": "binds"},
      {"measurement": "binding", "setting": "[2]", "value": "binds"}
    ]}
  ]
}
